Hit rate of the full screen: of about 360,000 compounds, about 7,500 (2.1%) were called active. Inconclusive means that the source gave no clear call. Such entries were picked first, then a sample of the others. The call rests on the fitted dose curve; in most records, active means well fitted inhibition curve with a large enough effect; inconclusive means small, poorly fitted or top-dose-only effect, or effect the other way; inactive means flat fitted curve, though single readings scatter. Potencies beside an inconclusive call are fits to weak or partial responses and may not hold up.
Assay: Nrf2 qHTS screen for inhibitors; further: nearly all actives have a fitted effect of over 60% in size
Details: A549 ARE-Fluc reporter, luciferase luminescence, 18-24 h; series mostly up to 46 µM
How it was run: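 Reporter: ARE-Fluc in A549. Exposure: 18-24 h, 37 °C, 5% CO2, 5% FBS OPTI-MEM. Readouts: fluorescent cytotoxicity (CellTiter-Fluor), then luminescent Nrf2 signal after BugLite.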
Potency means the concentration at half of the fitted maximal effect.

SMILES | Potency
Cc1ccc2cc(CN(Cc3ccccc3)Cc3nnnn3C3CCCC3)c(=O)[nH]c2c1 | inconclusive: 29.1 µM [falling, single point]
Cn1ccsc1=NC(=O)c1ccc(S(C)(=O)=O)cc1 | inconclusive: 29.1 µM [activator, single point]
NC(=S)NN=Cc1nccc2ccccc12 | inconclusive: 0.259 µM [falling, full curve, poor fit]
Cc1cc(NC(=O)Nc2ccc(F)c(Cl)c2)no1 | inconclusive: 29.1 µM [falling, partial curve, poor fit]
Cc1cccc(NC2=NC(C)(C)N=C(N)N2)c1 | active: 5.17 µM
Cc1ccc(NC(=O)NNC(=O)C2CC(c3cccs3)=NO2)cc1 (stereo not drawn) | inactive
Cc1occc1C(=O)Nc1cnn(CCCC(=O)O)c1 | inactive
CN(CC(=O)Nc1ccncc1)S(=O)(=O)c1ccc(Br)cc1 | inconclusive: 13 µM [falling, partial curve, poor fit]
Cn1c(-c2ccc3c(c2)OCO3)cnc1N | inactive
O=C1C=C(c2c(O)ccc3ccccc23)c2ccccc2C1=O | inactive
COc1cccc(N2CCN(C(=O)c3cc4c(s3)-c3ccccc3OC4)CC2)c1 | inconclusive: 29.1 µM [falling, single point]
CCN1CCN(C(c2cccs2)C(C)NS(=O)(=O)c2ccc(Br)cc2)CC1 (stereo not drawn) | inconclusive: 29.1 µM [activator, single point]
O=C(NCCC1=CCCCC1)c1ccc(Cl)c(S(=O)(=O)Nc2ccccc2)c1 | inconclusive: 23.1 µM [falling, single point]
CC1CC(C)(C)Nc2ccc(OC(=O)c3ccco3)cc21 (stereo not drawn) | inconclusive: 16.4 µM [falling, partial curve]
Cc1ccc2oc(-c3cccc(NC(=O)/C=C/c4cccc([N+](=O)[O-])c4)c3C)nc2c1 | inconclusive: 16.4 µM [activator, partial curve, poor fit]
O=[N+]([O-])c1ccc(N=Nc2ncc[nH]2)cc1 | inconclusive: 29.1 µM [activator, single point]
CCN(CC)S(=O)(=O)c1cc([N+](=O)[O-])ccc1N=Nc1c(O)[nH]c2ccccc12 | inconclusive: 23.1 µM [falling, partial curve, poor fit]
COc1cccc(/C=C/C(=O)NCc2ccc3c(c2)OCO3)c1 | inconclusive: 29.1 µM [activator, single point]
N#C/C(=C\c1ccc(F)cc1)c1nc(-c2ccco2)cs1 | inconclusive: 7.31 µM [activator, partial curve]
C/C(=N\NC(=O)Cc1cccc2ccccc12)c1ccncc1 | inconclusive: 29.1 µM [falling, single point]
CCOC(=O)C1=C(C)NC(=O)NC1/C(C)=C/c1ccccc1 (stereo not drawn) | inconclusive: 13 µM [falling, partial curve, poor fit]
CC1=[N+](C)c2ccc3ccccc3c2C1(C)C | inconclusive: 5.17 µM [falling, partial curve]

An excerpt from above in order of SMILES length, rising:
SMILES | Potency
CC1=[N+](C)c2ccc3ccccc3c2C1(C)C | inconclusive: 5.17 µM [falling, partial curve]
N#C/C(=C\c1ccc(F)cc1)c1nc(-c2ccco2)cs1 | inconclusive: 7.31 µM [activator, partial curve]
COc1cccc(/C=C/C(=O)NCc2ccc3c(c2)OCO3)c1 | inconclusive: 29.1 µM [activator, single point]

(listing goes on)

SMILES | Potency
Cc1ccc(NS(=O)(=O)c2ccc(NC(=O)c3ccc(-c4ccccc4)cc3)cc2)c(C)c1 | inconclusive: 16.4 µM [falling, partial curve, poor fit]
O=C(c1cccc(S(=O)(=O)N2CCN(c3ccccc3)CC2)c1)N1CCCC(C(F)(F)F)C1 (stereo not drawn) | active: 13 µM
O=C(NCCCc1ccccc1)c1ccc(F)cc1 | inconclusive: 20.6 µM [activator, partial curve]
O=C(N/N=C/c1ccccc1F)c1cccc2ccccc12 | inconclusive: 2.31 µM [activator, full curve]
O=C(NC(=O)c1ccccc1F)Nc1nc(-c2cccs2)cc(C(F)(F)F)n1 | inconclusive: 18.4 µM [falling, single point]
O=C(NCc1cccnc1)c1cc2nc(-c3cccs3)cc(C(F)(F)Cl)n2n1 | inconclusive: 14.6 µM [falling, single point]
CCCNc1c(NS(=O)(=O)c2ccc(C3CCCCC3)cc2)c(=O)oc2ccccc12 | inconclusive: 23.1 µM [falling, single point]
COc1cc(/C=C/c2cc[n+](C)cc2)ccc1OCC(=O)Nc1ccc(Cl)c(Cl)c1 | inconclusive: 32.6 µM [falling, single point]
CCCn1c2ccccc2c2cnn(CC(=O)Nc3cc(OC)c(OC)c(OC)c3)c(=O)c21 | inactive
CCC(=O)N(CCC(Cc1ccccc1)c1ccco1)Cc1ccco1 (stereo not drawn) | active: 16.4 µM
CCn1ccnc1CN(C)C(=O)c1cc(COc2ccccc2SC)on1 | inconclusive: 10.3 µM [activator, partial curve, poor fit]
COc1ccc(CNC/C=C/c2ccccc2)cc1 | inconclusive: 0.013 µM [falling, full curve, poor fit]
COC(=O)c1cc2c(-c3ccccc3)c(C)c3ccccn3c-2c1C(=O)OC | inconclusive: 5.17 µM [activator, single point]
CCc1nc2ccc(C(=O)N3CCN(c4cccc(Cl)c4)CC3)cc2nc1CC | inconclusive: 25.9 µM [falling, single point]
O=C(O)c1ccc(NC(=O)c2ccc(COc3ccc(Cl)cc3)o2)cc1 | inactive
COC(=O)c1c(-c2ccc(C)cc2)csc1NC(=S)NC(=O)c1ccc(F)cc1 | inactive
N/C(=N\OC(=O)C12CC3CC(CC(C3)C1)C2)c1ccccc1 | inconclusive: 4.11 µM [activator, partial curve]
Cc1ccc(N2CCN(C(=O)Cn3ncc4c([nH]c5ccc(C)cc54)c3=O)CC2)c(C)c1 | inconclusive: 9.2 µM [activator, partial curve]
N#CC1(Nc2ccc(Br)cc2)CCCC1 | inactive
COc1ccc(Nc2ncnc3sccc23)cc1OC | inconclusive: 0.58 µM [activator, full curve, poor fit]
CCCc1cc(N2CCCC2)n2nc(C)c(-c3ccccc3)c2n1 | inconclusive: 29.1 µM [falling, partial curve, poor fit]
